# Reference: the supplement of paper PMC12595434, “Development of retinoid nuclear receptor pathway antagonists through targeting aldehyde dehydrogenase 1A3” (iScience, 2025)
# Sequences of proteins named here, by UniProt entry; tags and fusion partners are left off. A change or cut given only in a name is not applied to a line headed by its entry.
# UniProt Q9BQ70: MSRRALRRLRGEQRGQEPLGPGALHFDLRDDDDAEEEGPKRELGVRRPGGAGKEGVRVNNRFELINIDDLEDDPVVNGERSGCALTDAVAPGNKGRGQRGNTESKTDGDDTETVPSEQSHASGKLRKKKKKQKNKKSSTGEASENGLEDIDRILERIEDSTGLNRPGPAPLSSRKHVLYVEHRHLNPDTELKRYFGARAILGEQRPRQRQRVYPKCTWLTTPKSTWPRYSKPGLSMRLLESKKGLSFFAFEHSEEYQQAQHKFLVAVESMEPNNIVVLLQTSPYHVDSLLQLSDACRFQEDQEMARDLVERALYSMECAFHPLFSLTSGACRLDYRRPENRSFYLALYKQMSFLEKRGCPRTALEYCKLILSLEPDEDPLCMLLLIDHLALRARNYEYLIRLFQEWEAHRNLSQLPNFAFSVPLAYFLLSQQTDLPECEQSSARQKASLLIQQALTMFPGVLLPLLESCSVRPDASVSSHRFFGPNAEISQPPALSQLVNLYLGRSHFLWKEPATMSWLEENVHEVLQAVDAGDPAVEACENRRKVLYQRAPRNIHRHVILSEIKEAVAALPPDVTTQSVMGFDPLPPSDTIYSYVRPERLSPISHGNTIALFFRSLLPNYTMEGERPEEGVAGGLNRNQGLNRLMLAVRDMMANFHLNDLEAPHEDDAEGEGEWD
# UniProt Q9BSU1: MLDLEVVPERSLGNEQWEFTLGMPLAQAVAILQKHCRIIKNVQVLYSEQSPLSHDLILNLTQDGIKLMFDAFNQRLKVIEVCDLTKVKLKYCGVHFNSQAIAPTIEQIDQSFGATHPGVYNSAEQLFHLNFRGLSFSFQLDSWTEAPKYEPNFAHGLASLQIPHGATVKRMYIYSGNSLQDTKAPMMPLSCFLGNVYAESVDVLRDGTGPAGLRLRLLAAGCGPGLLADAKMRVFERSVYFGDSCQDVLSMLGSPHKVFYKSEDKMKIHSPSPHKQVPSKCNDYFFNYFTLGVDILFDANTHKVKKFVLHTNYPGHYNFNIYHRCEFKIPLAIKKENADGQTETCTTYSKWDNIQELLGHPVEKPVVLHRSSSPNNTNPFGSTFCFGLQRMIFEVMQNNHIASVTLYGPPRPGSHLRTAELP
# UniProt Q9BUT9: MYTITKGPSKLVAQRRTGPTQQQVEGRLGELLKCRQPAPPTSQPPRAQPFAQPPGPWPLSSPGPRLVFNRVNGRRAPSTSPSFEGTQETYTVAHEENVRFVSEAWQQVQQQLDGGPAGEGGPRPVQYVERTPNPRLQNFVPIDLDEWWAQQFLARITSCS
# UniProt Q9BQP7: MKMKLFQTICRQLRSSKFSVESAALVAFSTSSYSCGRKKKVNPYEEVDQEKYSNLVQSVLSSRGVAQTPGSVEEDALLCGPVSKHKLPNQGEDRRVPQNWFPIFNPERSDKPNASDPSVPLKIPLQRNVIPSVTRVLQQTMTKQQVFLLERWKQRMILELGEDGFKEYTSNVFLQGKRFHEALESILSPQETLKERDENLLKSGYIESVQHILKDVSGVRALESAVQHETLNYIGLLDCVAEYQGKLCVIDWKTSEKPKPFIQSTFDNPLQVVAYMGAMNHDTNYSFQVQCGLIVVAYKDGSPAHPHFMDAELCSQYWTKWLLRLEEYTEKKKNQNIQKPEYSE
# UniProt Q9BRR8: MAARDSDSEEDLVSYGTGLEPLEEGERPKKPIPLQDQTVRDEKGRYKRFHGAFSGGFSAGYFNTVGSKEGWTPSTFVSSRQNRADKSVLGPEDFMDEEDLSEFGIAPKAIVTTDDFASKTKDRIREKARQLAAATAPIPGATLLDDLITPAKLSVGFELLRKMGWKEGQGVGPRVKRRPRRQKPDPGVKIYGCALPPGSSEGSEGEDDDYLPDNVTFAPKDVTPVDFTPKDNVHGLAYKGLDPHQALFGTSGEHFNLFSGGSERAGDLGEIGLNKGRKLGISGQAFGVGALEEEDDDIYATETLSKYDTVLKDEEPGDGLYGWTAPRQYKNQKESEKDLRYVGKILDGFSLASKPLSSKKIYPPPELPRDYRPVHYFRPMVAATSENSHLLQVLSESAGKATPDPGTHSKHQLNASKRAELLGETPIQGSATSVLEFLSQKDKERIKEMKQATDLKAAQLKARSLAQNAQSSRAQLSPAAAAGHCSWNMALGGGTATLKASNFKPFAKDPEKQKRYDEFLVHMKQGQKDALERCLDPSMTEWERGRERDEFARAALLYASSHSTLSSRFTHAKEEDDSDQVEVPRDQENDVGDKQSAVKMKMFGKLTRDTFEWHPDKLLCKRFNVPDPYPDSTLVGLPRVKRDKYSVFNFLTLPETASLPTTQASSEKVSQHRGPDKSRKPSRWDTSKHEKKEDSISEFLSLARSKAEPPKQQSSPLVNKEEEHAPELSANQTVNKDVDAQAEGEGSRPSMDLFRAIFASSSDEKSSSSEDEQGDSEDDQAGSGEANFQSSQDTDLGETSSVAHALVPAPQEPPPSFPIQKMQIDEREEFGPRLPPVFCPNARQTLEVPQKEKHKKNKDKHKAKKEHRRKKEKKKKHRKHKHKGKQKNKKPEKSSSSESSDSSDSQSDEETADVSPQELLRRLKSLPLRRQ
# UniProt Q9BUE0: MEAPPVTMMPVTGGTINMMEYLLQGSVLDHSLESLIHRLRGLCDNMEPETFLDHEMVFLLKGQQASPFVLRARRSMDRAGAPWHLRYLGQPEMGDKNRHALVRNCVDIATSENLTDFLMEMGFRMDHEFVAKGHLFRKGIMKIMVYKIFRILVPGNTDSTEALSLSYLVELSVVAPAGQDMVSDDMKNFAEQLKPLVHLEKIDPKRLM
# UniProt Q9BTF0: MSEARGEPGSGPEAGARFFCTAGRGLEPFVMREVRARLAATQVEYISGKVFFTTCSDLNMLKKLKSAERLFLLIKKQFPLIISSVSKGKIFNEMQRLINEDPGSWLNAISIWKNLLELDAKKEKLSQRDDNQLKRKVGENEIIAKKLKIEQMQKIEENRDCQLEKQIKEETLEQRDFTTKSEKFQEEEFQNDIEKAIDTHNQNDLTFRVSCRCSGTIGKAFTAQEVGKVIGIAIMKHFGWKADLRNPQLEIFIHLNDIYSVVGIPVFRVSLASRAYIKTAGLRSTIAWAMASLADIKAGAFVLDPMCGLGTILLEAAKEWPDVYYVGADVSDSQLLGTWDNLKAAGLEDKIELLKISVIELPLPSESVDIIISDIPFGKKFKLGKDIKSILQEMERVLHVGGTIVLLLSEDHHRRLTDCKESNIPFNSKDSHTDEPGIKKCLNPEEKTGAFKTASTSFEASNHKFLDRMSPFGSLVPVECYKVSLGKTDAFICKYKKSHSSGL
# UniProt Q9BSK4: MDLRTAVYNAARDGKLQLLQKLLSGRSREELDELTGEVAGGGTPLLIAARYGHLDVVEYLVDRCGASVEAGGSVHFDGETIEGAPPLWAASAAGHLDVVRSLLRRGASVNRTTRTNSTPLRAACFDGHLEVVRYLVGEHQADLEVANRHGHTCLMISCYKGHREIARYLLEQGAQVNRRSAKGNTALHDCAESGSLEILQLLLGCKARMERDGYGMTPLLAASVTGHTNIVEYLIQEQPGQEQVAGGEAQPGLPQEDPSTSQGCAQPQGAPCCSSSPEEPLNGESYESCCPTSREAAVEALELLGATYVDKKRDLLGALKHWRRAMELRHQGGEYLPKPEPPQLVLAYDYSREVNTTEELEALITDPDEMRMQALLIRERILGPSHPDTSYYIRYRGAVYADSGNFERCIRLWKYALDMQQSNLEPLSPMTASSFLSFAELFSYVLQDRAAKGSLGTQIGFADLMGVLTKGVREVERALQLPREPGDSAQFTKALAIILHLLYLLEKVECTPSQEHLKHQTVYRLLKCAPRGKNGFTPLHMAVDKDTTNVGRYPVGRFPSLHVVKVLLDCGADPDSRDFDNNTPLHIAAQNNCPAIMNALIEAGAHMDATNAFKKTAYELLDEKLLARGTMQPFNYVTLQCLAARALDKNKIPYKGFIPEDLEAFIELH
# UniProt Q9BRP4: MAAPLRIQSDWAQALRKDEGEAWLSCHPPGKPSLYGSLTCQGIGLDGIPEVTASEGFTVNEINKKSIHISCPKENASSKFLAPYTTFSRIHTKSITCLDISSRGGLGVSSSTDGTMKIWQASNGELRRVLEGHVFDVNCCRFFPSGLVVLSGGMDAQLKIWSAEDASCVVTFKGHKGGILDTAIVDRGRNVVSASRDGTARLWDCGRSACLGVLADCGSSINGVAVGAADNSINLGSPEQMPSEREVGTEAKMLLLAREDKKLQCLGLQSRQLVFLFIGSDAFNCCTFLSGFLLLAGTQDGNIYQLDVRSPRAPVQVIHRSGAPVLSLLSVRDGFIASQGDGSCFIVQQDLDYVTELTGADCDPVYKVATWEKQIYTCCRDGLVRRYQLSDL
# UniProt Q99832: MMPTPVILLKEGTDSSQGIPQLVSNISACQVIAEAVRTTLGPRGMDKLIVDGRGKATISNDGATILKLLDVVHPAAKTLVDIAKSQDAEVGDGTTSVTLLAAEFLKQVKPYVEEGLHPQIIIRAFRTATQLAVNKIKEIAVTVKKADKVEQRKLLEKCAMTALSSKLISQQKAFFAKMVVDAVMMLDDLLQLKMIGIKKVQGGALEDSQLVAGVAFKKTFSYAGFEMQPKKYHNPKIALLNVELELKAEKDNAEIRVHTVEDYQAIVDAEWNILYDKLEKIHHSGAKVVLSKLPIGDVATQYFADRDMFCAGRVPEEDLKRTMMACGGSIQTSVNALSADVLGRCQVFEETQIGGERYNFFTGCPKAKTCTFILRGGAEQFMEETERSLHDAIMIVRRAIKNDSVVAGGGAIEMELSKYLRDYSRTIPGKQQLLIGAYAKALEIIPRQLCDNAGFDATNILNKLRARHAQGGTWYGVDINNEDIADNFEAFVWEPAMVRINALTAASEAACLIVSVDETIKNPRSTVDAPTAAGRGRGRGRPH
# UniProt Q9BQD3: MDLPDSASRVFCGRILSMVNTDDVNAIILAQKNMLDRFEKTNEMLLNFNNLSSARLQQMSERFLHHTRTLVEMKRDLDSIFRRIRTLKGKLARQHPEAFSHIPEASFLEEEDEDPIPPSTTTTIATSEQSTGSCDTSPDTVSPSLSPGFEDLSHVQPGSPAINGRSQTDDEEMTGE
# UniProt Q9BWT3: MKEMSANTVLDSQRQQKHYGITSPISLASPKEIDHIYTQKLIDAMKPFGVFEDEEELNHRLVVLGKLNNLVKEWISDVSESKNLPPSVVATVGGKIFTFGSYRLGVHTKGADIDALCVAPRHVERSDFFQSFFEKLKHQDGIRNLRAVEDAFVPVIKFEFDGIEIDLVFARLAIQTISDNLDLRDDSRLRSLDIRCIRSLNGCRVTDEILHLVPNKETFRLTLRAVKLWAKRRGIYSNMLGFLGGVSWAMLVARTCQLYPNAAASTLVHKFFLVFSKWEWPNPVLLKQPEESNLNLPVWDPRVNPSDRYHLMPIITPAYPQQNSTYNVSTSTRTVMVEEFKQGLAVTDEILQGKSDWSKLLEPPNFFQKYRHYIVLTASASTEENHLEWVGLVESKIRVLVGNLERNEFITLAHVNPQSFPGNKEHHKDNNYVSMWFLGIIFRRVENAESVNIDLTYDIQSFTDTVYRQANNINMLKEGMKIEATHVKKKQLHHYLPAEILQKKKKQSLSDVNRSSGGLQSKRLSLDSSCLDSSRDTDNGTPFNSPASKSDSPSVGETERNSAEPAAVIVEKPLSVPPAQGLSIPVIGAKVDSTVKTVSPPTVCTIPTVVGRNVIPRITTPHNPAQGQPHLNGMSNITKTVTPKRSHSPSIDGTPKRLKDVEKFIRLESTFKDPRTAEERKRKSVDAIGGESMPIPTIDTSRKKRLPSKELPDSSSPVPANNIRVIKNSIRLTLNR
# UniProt Q9BTT4: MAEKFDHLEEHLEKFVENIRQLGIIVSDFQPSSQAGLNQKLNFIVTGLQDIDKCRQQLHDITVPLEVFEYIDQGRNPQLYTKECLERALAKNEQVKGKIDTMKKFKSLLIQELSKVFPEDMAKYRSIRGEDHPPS
# UniProt Q9BUE6: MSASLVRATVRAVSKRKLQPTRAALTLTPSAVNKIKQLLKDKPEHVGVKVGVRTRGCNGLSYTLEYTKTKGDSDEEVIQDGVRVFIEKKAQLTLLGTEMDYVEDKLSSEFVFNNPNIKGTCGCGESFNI
# UniProt Q9BR61: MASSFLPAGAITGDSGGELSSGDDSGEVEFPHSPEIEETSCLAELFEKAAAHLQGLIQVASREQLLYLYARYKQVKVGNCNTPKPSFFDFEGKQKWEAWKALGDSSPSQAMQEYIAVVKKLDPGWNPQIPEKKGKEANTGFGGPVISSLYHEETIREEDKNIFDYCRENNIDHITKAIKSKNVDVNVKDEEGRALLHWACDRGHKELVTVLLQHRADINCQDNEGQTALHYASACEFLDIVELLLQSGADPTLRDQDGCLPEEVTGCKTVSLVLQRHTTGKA
# UniProt Q99598: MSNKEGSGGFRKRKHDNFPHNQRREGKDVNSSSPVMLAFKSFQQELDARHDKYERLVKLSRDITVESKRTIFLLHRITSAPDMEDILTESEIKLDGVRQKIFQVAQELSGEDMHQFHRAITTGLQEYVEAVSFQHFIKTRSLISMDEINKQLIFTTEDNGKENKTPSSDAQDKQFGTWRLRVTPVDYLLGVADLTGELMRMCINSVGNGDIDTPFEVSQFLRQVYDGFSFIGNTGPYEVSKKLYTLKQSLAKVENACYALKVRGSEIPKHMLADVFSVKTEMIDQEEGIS
# The other results are listed elsewhere or left out. The data scatter; read single values as rough.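 Tm was set to 64 °C where no melting was found, and many curves are irregular.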
# Compound: CCc1cnccc1C(=O)Nc1cc2c(cc1F)NC(=O)CC2
# Assay: melting temperature shift (DMSO Tm minus MBE1-treated Tm) in cellular thermal proteome profiling; higher = less thermal stabilization by MBE1 (negative = stabilized by MBE1)
# Settings: A375; MBE1 concentration: 100 nM
row,Target,melting temperature shift [°C]
1,TCF25 (UniProt Q9BQ70),-0.405
2,UniProt Q9BSU1,-0.464
3,TMEM43 (UniProt Q9BTV4),-0.724
4,WDR18 (UniProt Q9BV38),-1.16
5,UniProt Q99767,0.0565
6,MIEN1 (UniProt Q9BRT3),-0.366
7,FAM195A (UniProt Q9BUT9),0.33
8,UniProt Q9BV19,-4.95
9,MGME1 (UniProt Q9BQP7),-1.15
10,UniProt Q9BRR8,2.32
11,ATG101 (UniProt Q9BSB4),-2.29
12,MED18 (UniProt Q9BUE0),-0.47
13,GNB1L (UniProt Q9BYB4),-1.7
14,THUMPD2 (UniProt Q9BTF0),-0.311
15,UniProt Q9BSK4,0.884
16,NUP88 (UniProt Q99567),-0.226
17,UniProt Q99865,0.362
18,MTG1 (UniProt Q9BT17),-3.97
19,ABHD6 (UniProt Q9BV23),0.281

row,Target,melting temperature shift [°C]
1,SPATA5L1 (UniProt Q9BVQ7),0.0469
2,PAAF1 (UniProt Q9BRP4),-0.769
3,CCT7 (UniProt Q99832),-0.785
4,KXD1 (UniProt Q9BQD3),-1.11
5,PAPOLG (UniProt Q9BWT3),6.16
6,UBAC1 (UniProt Q9BSL1),1.76
7,UniProt Q9BUP0,-1.13
8,UniProt Q9BT88,-1.02
9,UniProt Q9BW30,-5.72
10,ATXN2 (UniProt Q99700),-0.128
11,UniProt Q9BTT4,-2.37
12,ERP44 (UniProt Q9BS26),-1.33
13,GRWD1 (UniProt Q9BQ67),-1.61
14,ISCA1 (UniProt Q9BUE6),0.315
15,ACBD6 (UniProt Q9BR61),-0.416
16,TSNAX (UniProt Q99598),-1.47
17,C9ORF142 (UniProt Q9BUH6),-2.3
18,ITPA (UniProt Q9BY32),-2
19,WAC (UniProt Q9BTA9),-0.224

# Same assay, conditions: A375; MBE1 concentration: 1 uM
row,Target,melting temperature shift [°C]
1,TCF25 (UniProt Q9BQ70),-0.62
2,UniProt Q9BSU1,-0.0244
3,TMEM43 (UniProt Q9BTV4),0.557
4,WDR18 (UniProt Q9BV38),-0.61
5,UniProt Q99767,-0.169
6,MIEN1 (UniProt Q9BRT3),-0.611
7,FAM195A (UniProt Q9BUT9),2.16
8,UniProt Q9BV19,0.202
9,MGME1 (UniProt Q9BQP7),0.0872
10,UniProt Q9BRR8,0.983
11,ATG101 (UniProt Q9BSB4),-2.81
12,MED18 (UniProt Q9BUE0),0.047
13,GNB1L (UniProt Q9BYB4),0.898
14,THUMPD2 (UniProt Q9BTF0),1.62
15,UniProt Q9BSK4,-0.202
16,NUP88 (UniProt Q99567),-0.226
17,UniProt Q99865,-0.128
18,MTG1 (UniProt Q9BT17),-2.09
19,ABHD6 (UniProt Q9BV23),-1.23

row,Target,melting temperature shift [°C]
1,SPATA5L1 (UniProt Q9BVQ7),0.778
2,PAAF1 (UniProt Q9BRP4),-0.702
3,CCT7 (UniProt Q99832),0.61
4,KXD1 (UniProt Q9BQD3),1.14
5,PAPOLG (UniProt Q9BWT3),0.519
6,UBAC1 (UniProt Q9BSL1),-0.318
7,UniProt Q9BUP0,-0.986
8,UniProt Q9BT88,-0.0916
9,UniProt Q9BW30,-1.55
10,ATXN2 (UniProt Q99700),0.714
11,UniProt Q9BTT4,1.43
12,ERP44 (UniProt Q9BS26),-1.6
13,GRWD1 (UniProt Q9BQ67),-0.115
14,ISCA1 (UniProt Q9BUE6),0.469
15,ACBD6 (UniProt Q9BR61),-0.759
16,TSNAX (UniProt Q99598),-0.891
17,C9ORF142 (UniProt Q9BUH6),-1.87
18,ITPA (UniProt Q9BY32),-0.874
19,WAC (UniProt Q9BTA9),-0.0897
